Assay: Maximum absorption wavelength (absorption spectrum, spectrophotometer)
Format: physicochemical
Details: measurement solution in acetonitrile (low solubility in water)
From the text: Hereinafter, a method of measuring the maximum absorption wavelength presents no problem as long as it is capable of measuring the maximum absorption wavelength with good accuracy and, for example, the following method can be employed: […] (2) load the measurement aqueous solution to a quartz cell (optical path length=10 mm, thickness 1.25 mm), and measure the absorption spectrum using a spectrophotometer (e.g., visible-ultraviolet absorption spectrometer V-670 manufactured by JASCO Corporation). As the absorption spectrum of the measurement aqueous solution, a corrected absorption spectrum obtained by measuring the absorption spectrum of water alone in advance and deducting this absorption spectrum of water from the absorption spectrum of the measurement aqueous solution is used. […] (2) The thus obtained measurement aqueous solutions were each loaded to a quartz cell (optical path length—10 mm, thickness 1.25 mm), and an absorption spectrum was measured using a spectrophotometer (e.g., visible-ultraviolet absorption spectrometer V-670 manufactured by JASCO Corporation). […] Further, as the absorption spectrum, a corrected absorption spectrum obtained by measuring the absorption spectrum of the solvent itself in advance and deducting this absorption spectrum of the solvent from the absorption spectrum of the measurement solution was used.

For `O=C(c1ccccc1)C1(O)CCCCC1` [Compound 102], the Maximum absorption wavelength was 325 nm.
